In the supplement of paper PMC10849652:
The other results are listed elsewhere or left out.

Protein sequences, listed by entry. Tags and fused reporters are not part of them. Lines headed by an entry give the natural chain unless they say otherwise; changes in a name come on top.
UniProt Q12824, whole entry, looked up: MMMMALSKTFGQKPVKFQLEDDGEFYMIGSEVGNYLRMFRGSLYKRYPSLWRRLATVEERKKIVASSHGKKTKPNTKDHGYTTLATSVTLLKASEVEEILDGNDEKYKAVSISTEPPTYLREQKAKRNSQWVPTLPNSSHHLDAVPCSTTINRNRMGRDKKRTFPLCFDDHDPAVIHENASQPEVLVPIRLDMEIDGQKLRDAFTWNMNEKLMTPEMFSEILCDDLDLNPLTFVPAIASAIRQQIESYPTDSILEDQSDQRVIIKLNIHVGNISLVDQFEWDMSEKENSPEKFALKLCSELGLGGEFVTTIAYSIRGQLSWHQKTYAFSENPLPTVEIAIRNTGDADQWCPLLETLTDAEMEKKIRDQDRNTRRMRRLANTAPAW
UniProt Q00796: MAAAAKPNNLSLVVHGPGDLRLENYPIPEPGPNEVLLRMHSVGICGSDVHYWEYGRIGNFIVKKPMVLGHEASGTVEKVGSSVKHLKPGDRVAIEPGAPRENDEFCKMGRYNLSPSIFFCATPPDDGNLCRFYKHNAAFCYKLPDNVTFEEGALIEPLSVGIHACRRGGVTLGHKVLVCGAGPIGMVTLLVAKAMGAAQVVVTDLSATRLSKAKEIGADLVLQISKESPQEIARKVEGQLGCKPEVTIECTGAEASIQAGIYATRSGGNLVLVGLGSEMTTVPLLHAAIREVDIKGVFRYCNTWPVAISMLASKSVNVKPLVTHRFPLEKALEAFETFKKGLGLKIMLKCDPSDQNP
UniProt Q6J4K2: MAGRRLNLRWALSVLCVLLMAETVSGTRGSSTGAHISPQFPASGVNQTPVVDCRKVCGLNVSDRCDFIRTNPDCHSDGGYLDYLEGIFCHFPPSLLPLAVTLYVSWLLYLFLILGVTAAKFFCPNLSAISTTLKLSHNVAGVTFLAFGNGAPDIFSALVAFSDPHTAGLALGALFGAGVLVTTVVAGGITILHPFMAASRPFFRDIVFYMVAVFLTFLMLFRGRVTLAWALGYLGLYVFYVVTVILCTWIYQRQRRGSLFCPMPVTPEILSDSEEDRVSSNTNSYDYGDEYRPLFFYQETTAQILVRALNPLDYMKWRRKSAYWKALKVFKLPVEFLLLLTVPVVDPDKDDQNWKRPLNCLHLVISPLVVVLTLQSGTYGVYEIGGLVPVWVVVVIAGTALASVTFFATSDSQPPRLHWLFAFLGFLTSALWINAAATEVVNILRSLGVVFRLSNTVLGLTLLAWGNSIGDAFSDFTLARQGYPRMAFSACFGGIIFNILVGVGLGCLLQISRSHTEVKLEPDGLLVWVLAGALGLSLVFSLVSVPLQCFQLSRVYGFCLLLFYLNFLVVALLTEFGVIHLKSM
UniProt O95219: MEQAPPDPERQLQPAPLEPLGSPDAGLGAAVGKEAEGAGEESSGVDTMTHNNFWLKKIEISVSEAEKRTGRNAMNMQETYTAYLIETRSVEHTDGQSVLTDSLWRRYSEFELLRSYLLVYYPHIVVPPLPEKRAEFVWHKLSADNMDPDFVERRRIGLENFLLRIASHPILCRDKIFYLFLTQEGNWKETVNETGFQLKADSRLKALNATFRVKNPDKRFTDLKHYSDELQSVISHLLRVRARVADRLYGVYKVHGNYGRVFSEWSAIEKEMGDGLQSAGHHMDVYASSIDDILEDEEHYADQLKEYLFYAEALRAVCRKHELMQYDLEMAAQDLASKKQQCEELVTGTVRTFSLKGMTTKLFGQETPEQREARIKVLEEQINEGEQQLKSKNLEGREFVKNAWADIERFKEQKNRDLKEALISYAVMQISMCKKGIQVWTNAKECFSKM
UniProt Q92925, whole entry, looked up: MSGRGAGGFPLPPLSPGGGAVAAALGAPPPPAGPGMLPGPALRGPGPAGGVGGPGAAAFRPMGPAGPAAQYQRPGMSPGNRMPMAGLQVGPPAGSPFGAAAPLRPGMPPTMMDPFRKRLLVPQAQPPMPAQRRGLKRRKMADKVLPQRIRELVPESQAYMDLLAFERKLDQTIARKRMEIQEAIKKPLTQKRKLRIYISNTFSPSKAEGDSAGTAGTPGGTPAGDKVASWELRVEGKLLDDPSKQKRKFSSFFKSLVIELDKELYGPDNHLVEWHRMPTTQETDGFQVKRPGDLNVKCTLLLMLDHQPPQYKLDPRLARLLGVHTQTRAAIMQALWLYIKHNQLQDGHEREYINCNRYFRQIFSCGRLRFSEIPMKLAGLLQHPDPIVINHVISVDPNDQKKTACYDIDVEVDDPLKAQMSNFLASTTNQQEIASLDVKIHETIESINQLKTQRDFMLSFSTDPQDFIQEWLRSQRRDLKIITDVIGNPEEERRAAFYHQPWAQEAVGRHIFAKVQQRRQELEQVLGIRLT
UniProt Q6GMV2: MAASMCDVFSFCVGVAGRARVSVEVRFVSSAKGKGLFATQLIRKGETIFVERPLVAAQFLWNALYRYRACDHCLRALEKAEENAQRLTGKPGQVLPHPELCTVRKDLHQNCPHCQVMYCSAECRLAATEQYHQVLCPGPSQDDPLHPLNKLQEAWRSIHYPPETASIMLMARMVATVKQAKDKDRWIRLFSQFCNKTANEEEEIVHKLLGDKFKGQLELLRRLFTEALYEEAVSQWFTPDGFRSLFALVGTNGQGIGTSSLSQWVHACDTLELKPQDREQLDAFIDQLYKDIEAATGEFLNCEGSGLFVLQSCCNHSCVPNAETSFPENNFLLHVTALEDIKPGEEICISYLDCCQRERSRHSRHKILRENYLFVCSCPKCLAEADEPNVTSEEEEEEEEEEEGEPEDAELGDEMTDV
UniProt P08294: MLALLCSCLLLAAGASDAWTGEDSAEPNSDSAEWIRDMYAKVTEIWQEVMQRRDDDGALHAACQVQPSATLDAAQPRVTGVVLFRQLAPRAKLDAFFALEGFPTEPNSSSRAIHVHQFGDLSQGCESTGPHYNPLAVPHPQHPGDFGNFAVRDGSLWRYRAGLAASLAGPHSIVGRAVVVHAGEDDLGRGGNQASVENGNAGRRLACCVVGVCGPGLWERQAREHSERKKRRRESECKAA
UniProt Q8TEV9: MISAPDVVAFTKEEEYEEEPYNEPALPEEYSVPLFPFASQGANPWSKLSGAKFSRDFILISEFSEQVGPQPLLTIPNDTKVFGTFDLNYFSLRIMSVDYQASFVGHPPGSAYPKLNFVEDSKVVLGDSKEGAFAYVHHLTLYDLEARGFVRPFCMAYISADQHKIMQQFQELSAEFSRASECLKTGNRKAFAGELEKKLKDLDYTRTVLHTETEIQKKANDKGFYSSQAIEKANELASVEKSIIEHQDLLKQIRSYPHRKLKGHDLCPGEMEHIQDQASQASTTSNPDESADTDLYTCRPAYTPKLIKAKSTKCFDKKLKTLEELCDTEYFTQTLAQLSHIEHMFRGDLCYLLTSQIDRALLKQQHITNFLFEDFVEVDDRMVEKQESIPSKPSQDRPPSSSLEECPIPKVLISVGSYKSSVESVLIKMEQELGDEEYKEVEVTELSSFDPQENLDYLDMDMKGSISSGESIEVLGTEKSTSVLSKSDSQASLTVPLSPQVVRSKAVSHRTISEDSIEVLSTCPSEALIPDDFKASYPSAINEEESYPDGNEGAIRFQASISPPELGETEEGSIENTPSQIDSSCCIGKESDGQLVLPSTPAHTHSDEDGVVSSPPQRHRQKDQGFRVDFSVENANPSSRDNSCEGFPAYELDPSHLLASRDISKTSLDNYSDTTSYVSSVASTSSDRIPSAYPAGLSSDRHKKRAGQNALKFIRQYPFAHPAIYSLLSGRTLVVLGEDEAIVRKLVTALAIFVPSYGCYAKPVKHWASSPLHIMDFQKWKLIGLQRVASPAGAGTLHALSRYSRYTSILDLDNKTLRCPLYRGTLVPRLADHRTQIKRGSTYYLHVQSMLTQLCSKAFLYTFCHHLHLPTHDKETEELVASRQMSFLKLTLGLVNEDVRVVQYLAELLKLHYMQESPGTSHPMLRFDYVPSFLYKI
UniProt P19634, whole entry, looked up: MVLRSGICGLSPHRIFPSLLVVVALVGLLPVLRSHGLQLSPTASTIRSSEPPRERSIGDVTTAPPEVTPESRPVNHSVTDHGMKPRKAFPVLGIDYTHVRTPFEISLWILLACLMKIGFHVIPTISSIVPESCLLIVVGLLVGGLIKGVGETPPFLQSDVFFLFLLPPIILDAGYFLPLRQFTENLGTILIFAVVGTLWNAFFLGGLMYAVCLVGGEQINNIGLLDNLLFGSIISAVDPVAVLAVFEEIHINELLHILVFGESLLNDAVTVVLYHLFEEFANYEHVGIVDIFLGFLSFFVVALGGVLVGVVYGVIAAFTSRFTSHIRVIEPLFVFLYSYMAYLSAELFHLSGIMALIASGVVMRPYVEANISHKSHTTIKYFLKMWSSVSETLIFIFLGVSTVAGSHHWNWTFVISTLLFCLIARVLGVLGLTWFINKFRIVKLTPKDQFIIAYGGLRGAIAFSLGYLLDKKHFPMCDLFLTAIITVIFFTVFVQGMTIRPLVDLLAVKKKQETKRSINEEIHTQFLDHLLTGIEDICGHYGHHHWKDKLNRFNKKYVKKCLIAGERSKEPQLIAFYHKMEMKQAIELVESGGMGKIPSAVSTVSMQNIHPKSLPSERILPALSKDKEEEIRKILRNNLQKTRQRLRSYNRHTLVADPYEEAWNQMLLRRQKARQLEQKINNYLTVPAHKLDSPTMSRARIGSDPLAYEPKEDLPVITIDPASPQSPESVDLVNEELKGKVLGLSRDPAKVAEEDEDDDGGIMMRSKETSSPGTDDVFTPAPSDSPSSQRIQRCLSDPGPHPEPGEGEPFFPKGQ
UniProt Q96E16: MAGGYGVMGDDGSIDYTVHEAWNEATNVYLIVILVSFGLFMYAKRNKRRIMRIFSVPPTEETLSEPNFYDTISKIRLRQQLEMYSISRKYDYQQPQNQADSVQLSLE

How the values were obtained:
Assay in all cases: log2 fold change, soluble protein after heating vs DMSO (PISA); higher = thermal stabilisation; K562 cells, 10 uM, 30 min; active = over 0.2 and 3.5 SD of the protein, either way, in both replicates (recomputed)
[1] = compound: C1=CC=C(C=C1)[C@H](COC2=CC3=C(C=C2)NC(=O)N3)NC(=O)C4=CC=CN(C4=O)CC5=CC(=C(C=C5)F)F
Procedure, shortened: (§1)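 Thermal stability values are relative to control samples and come from duplicates. They are expressed as log2 fold changes. For measurement, K562 cells (2×10^6 cells/mL) received 10 μM compound for 30 min, and aliquots were heated for 3 min over 48°C-58°C, pooled, and extracted at 4°C in PBS with 0.5% NP-40. Soluble protein, the supernatant after 21,000xg for 90 min, was quantified by TMTpro 16plex LC-MS/MS with equalised channel sums.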

[2] = compound: Cc1sc2c(c1C)C(c1ccc(Cl)cc1)=N[C@@H](CC(=O)OC(C)(C)C)c1nnc(C)n1-2
Procedure, shortened: as §1

[3] = compound: CC1=C(SC2=C1C(=N[C@H](C3=NN=C(N32)C)CC(=O)N)C4=CC=C(C=C4)Cl)C
Procedure, shortened: as §1

[4] = compound: CC1=C2C(=CC=C1)N=C(N(C2=O)C3=CC=CC=C3C)CN4C=NC5=C(N=CN=C54)N
Procedure, shortened: as §1

[5] = compound: c1ccc([C@@H]2C[C@H]2NC2CCNCC2)cc1
Procedure, shortened: as §1

Measured: log2 fold change

SOS1 (UniProt Q07889)
inactive: [1] 0.063 | [2] -0.163

SMARCB1 (UniProt Q12824)
inactive: [3] 0.057 | [4] -0.041 | [2] 0.015 | [5] 0.18

SORD (UniProt Q00796)
inactive: [1] 0.02 | [3] 0.033 | [4] 0.045 | [2] -0.014 | [5] 0.05

SLC8B1 (UniProt Q6J4K2)
inactive: [1] 0.094 | [3] 0.178 | [4] 0.019 | [5] -0.049

SNX4 (UniProt O95219)
inactive: [3] -0.053 | [5] -0.073

Reprinted at random: two records from the list
SORD (UniProt Q00796)
inactive: [1] 0.02 | [3] 0.033 | [4] 0.045 | [2] -0.014 | [5] 0.05

SNX4 (UniProt O95219)
inactive: [3] -0.053 | [5] -0.073

(listing goes on)

SMARCD2 (UniProt Q92925)
inactive: [3] -0.031 | [2] -0.054 | [5] -0.35

SMYD5 (UniProt Q6GMV2)
inactive: [1] -0.038 | [3] 0.04 | [4] 0.029 | [2] -0.001 | [5] 0.003

SOD3 (UniProt P08294)
inactive: [3] 0.007 | [4] 0.037 | [2] -0.358 | [5] -0.025

SMCR8 (UniProt Q8TEV9)
inactive: [1] 0.037 | [3] 0.023 | [2] 0.115 | [5] -0.013

SLC9A1 (UniProt P19634)
inactive: [1] -0.03 | [4] 0.037 | [2] -0.091

SMIM19 (UniProt Q96E16)
inactive: [4] 0.174 | [2] -0.6
